According to the supplement of paper PMC10849652:
Some of the results follow.

Sequences of proteins named here, by UniProt entry; tags and fusion partners are left off. A change or cut given only in a name is not applied to a line headed by its entry.
UniProt Q9NR96: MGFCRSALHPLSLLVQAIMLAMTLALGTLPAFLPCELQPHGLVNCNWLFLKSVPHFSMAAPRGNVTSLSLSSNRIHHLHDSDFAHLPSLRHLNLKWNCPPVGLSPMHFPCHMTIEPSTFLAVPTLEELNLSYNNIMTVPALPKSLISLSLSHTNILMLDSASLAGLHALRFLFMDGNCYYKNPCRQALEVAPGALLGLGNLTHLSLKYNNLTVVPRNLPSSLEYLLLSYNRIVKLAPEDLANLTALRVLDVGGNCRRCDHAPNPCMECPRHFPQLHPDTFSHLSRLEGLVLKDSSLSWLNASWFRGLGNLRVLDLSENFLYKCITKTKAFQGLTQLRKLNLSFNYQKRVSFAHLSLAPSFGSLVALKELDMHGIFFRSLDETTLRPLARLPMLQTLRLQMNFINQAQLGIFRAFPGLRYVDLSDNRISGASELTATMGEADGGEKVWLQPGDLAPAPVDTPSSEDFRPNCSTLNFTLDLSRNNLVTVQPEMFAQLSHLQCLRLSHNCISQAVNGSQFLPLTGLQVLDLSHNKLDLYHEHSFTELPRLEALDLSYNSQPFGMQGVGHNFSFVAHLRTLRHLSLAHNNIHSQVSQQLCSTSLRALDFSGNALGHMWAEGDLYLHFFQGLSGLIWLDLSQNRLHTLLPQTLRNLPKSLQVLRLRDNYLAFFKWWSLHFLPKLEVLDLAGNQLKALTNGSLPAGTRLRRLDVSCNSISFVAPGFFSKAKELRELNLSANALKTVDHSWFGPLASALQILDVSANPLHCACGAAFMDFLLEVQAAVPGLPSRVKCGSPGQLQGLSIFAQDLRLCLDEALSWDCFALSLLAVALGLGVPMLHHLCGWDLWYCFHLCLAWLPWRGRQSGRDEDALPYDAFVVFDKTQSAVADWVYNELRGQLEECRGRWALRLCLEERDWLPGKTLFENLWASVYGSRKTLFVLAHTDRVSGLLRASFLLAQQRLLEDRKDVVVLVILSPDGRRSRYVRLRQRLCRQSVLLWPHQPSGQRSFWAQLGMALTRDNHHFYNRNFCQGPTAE
UniProt Q9UNS1: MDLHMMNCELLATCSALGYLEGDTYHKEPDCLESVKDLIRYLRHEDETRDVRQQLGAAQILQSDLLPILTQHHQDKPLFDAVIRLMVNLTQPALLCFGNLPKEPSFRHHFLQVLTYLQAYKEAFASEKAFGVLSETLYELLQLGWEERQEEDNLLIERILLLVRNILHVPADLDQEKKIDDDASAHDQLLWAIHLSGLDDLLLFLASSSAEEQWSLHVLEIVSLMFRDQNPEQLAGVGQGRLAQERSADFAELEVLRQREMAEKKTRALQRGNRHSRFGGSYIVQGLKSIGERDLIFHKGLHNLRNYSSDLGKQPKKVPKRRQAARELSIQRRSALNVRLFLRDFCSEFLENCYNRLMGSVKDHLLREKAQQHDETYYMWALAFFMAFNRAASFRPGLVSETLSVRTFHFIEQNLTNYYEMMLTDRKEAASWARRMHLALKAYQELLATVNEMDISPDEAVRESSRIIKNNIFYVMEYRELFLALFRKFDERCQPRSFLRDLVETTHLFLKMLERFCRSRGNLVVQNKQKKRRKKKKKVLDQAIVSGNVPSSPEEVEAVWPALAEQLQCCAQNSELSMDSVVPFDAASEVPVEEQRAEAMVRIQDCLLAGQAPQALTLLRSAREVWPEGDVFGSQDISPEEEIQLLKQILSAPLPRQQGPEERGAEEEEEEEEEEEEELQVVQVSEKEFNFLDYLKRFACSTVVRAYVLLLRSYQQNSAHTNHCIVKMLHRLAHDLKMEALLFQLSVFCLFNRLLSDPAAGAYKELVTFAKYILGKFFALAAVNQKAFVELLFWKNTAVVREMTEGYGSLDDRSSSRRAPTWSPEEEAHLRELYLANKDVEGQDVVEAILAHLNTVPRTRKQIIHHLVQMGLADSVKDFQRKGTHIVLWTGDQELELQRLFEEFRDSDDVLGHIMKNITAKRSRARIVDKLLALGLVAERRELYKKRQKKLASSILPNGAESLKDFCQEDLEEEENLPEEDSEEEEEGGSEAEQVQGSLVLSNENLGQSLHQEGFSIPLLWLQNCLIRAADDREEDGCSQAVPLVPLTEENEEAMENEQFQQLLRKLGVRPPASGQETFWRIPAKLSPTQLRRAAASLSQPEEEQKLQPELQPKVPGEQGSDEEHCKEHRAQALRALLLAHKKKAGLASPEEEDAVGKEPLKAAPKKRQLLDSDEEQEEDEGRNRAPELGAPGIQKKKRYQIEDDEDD
UniProt Q9BVW5: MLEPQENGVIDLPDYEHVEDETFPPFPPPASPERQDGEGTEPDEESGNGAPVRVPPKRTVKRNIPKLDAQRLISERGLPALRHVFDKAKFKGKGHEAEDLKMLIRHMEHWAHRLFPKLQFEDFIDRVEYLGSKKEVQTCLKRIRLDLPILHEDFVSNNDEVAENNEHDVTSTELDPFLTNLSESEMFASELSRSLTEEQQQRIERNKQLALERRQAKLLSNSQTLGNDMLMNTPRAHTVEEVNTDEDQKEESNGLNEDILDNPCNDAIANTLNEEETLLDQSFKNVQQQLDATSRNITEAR
UniProt Q96J01: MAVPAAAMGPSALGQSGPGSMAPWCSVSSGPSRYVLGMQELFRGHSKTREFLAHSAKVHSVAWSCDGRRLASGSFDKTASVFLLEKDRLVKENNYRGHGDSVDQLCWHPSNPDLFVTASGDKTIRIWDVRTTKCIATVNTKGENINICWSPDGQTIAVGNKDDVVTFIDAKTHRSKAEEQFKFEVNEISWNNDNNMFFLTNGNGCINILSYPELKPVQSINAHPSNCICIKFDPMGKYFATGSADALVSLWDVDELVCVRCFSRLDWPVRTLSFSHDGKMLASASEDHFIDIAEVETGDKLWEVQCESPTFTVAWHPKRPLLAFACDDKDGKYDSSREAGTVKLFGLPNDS
UniProt O60830: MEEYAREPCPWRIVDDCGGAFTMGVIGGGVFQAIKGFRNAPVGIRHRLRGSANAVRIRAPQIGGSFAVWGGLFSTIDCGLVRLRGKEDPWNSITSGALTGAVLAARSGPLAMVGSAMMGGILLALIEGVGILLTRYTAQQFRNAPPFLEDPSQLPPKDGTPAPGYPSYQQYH
UniProt Q9H7F4: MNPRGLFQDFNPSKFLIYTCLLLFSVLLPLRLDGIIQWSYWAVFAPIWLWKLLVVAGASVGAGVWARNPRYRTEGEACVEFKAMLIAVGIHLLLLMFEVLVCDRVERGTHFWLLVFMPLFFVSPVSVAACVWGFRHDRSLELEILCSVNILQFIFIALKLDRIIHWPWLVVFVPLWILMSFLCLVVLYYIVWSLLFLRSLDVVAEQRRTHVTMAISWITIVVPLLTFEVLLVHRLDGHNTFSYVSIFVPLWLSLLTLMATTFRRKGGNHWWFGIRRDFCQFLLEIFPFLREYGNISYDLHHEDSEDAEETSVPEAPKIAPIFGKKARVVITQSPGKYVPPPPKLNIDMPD
UniProt O60220: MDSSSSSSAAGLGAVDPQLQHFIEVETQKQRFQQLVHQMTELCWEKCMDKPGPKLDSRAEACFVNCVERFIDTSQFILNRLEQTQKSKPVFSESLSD
UniProt Q86XR7, whole entry, looked up: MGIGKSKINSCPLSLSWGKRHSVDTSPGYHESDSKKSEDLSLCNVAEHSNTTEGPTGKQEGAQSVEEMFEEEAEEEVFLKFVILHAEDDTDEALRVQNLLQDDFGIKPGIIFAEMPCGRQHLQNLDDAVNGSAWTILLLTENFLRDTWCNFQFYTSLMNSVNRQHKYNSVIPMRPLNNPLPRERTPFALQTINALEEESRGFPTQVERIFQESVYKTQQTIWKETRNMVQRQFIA
UniProt Q9H0V1: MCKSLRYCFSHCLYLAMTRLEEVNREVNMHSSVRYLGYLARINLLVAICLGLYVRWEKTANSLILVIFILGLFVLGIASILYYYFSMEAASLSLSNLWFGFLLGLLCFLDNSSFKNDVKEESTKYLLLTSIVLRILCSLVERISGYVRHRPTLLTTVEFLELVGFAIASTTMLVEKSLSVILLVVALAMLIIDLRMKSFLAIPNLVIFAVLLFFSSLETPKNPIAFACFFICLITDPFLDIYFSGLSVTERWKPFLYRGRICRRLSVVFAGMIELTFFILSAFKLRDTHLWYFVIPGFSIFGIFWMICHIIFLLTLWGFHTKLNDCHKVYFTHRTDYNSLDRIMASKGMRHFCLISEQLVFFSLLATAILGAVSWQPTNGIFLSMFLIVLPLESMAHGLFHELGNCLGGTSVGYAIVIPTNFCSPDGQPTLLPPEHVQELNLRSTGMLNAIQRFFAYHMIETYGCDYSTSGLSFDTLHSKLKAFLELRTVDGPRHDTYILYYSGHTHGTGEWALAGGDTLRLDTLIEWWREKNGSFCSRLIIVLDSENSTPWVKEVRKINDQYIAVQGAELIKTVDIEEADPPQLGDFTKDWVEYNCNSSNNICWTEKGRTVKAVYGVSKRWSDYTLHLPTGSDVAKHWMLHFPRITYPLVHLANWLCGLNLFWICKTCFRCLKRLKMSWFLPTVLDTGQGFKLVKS
UniProt Q9NUM4, whole entry, looked up: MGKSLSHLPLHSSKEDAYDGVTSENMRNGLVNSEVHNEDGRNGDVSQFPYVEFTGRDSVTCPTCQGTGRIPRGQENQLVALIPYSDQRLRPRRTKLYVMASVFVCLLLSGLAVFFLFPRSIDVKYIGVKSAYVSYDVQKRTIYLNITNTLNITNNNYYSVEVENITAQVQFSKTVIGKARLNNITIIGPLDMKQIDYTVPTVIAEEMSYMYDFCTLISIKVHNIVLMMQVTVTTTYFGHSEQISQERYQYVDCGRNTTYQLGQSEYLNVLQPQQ
UniProt Q9Y2W1: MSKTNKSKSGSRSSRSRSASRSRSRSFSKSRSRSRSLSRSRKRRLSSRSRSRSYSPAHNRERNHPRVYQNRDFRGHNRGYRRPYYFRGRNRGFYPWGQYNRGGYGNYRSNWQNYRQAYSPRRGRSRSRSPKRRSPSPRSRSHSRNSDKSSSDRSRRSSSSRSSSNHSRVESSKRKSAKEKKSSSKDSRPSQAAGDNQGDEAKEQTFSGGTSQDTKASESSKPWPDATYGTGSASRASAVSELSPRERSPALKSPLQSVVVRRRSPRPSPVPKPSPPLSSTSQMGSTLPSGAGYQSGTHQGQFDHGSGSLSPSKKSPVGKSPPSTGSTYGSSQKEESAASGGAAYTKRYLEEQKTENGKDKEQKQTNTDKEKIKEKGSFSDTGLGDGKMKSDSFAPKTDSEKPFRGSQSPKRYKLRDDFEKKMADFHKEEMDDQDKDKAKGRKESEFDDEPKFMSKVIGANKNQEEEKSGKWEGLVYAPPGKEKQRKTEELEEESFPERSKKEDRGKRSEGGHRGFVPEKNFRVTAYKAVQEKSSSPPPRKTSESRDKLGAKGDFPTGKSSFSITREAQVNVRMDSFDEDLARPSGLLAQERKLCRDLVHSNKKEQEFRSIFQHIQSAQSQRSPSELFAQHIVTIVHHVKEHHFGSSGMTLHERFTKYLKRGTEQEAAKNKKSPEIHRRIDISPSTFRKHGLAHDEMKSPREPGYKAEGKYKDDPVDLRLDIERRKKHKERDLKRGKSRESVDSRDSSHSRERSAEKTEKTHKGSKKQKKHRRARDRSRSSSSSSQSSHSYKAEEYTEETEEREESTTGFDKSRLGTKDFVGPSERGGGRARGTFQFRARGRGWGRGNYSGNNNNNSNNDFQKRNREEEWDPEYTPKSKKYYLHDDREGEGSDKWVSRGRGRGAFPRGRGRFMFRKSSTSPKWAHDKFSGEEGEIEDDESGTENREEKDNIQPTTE
UniProt O43615: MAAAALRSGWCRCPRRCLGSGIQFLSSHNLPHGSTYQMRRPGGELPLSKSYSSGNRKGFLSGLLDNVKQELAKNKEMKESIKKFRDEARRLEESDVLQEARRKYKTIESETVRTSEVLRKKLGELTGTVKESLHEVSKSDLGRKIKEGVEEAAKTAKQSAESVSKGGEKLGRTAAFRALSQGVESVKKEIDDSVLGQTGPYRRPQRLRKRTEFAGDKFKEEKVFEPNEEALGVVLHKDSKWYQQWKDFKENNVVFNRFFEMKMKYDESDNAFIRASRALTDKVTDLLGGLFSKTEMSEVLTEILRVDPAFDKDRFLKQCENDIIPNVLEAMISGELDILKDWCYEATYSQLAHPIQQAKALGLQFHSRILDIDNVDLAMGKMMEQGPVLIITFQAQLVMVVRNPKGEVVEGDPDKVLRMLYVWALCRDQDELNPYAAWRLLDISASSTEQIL
UniProt P62072: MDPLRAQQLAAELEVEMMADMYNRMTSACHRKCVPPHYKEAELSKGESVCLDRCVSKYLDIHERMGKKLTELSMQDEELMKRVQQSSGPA
UniProt Q9BVC6: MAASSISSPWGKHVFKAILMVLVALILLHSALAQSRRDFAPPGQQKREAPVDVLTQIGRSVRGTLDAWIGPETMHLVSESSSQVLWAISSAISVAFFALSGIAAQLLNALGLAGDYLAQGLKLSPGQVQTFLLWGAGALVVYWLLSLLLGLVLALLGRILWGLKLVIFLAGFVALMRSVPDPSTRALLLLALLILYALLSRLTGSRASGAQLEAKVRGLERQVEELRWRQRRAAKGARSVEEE

Columns and labels:
Test in all cases: log2 fold change, soluble protein after heating vs DMSO (PISA); higher = thermal stabilisation; K562 lysate, 10 uM; active = over 0.2 and 3.5 SD of the protein, either way, in both replicates (recomputed)
erlotinib = compound: C#Cc1cccc(Nc2ncnc3cc(OCCOC)c(OCCOC)cc23)c1 [erlotinib]
Summary of the method: (§1)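 To prepare the extract, K562 pellets were dounce-homogenised in PBS pH 7.4 with 1 mM MgCl2, giving crude material at 1 mg/mL protein. This was treated with 10 μM compound for 30 min, then heated in aliquots for 3 min over 48°C-58°C before pooling and addition of NP-40 to 0.5% at 4°C. Centrifugation at 21,000xg for 90 min left soluble protein in the supernatant, which TMTpro 16plex LC-MS/MS quantified with equalised channel sums. Results are log-two fold changes in thermal stability compared with solvent controls, from duplicates.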

[1] = compound: C/C(=N\NC(=O)C1=CC(=CC=C1)S(=O)(=O)N2CCOCC2)/C3=C(C=CC(=C3)Cl)O
Summary of the method: as §1

[2] = compound: C1=CC(=CC=C1C2=NC3=C(N2)C=C(C=C3)C(=O)N)OC4=CC=C(C=C4)Cl
Summary of the method: as §1

[3] = compound: C1=CC2=C(C=CC(=C2)/C=C\3/C(=O)NC(=NCC4=CC=CS4)S3)N=C1
Summary of the method: as §1

[4] = compound: C1=CC2=NC=CN=C2C=C1/C=C/3\C(=O)NC(=O)S3
Summary of the method: as §1

[5] = compound: C1=CC=C(C=C1)C2=NC(=C(N2)C3=CC=NC=C3)C4=CC(=C(C=C4)Cl)O
Summary of the method: as §1

[6] = compound: C1=CC=C2C(=C1)C3=NNC4=CC=CC(=C43)C2=O
Summary of the method: as §1

[7] = compound: C1CCN(C1)C(=O)NC2=CC=CC(=C2)NC3=NC=C(C(=N3)NCCC4=CN=CN4)Br
Summary of the method: as §1

[8] = compound: C1CN(CCC1(CC2=CC=C(C=C2)Cl)N)C3=NC=NC4=C3C=CN4
Summary of the method: as §1

IRAK-1-4 Inhibitor I = compound: C1COCCN1CCN2C3=CC=CC=C3N=C2NC(=O)C4=CC(=CC=C4)[N+](=O)[O-] [IRAK-1-4 Inhibitor I]
Summary of the method: as §1

ibrutinib = compound: C=CC(=O)N1CCC[C@@H](n2nc(-c3ccc(Oc4ccccc4)cc3)c3c(N)ncnc32)C1 [ibrutinib]
Summary of the method: as §1

[9] = compound: CC(=O)c1cnc2ccc(-c3cc(Cl)c(O)c(Cl)c3)nc2c1N[C@H]1CC[C@H](CN(C)C)CC1
Summary of the method: as §1

ralimetinib = compound: CC(C)(C)Cn1c(N)nc2ccc(-c3[nH]c(C(C)(C)C)nc3-c3ccc(F)cc3)nc21 [ralimetinib]
Summary of the method: as §1

[10] = compound: CC(C)(O)CC(=O)NCCn1ccc2ncnc(Nc3ccc(Oc4cccc(C(F)(F)F)c4)c(Cl)c3)c21
Summary of the method: as §1

[11] = compound: CC(C)C1=C2N=C(C=C(N2N=C1)NCC3=CC=CC=C3)NCCCCCCN
Summary of the method: as §1

[12] = compound: CC1=C(C(CC(=O)N1)C2=CC=C(C=C2)C(F)(F)F)C(=O)NC3=C(C=C4C(=C3)C=NN4)F
Summary of the method: as §1

[13] = compound: CC1=C(C2=C(C=C1)C(=O)C3=CC=CC=C3N2CCCN)C
Summary of the method: as §1

[14] = compound: CC1=C(C=C(C=C1)NC(=O)C2=CC(=CC=C2)C(C)(C)C#N)NC3=CC4=C(C=C3)N=CN(C4=O)C
Summary of the method: as §1

[15] = compound: CC1=C(C=C(C=C1)NC(=O)C2=CC(=CC=C2)N(C)C)NC(=O)C3=CC=C(C=C3)O
Summary of the method: as §1

[16] = compound: CC1=CC=C(C=C1)SC2=C3C=C(SC3=CN=C2)C(=O)N
Summary of the method: as §1

Measured: log2 fold change

TLR9 isoform 4 (UniProt Q9NR96)
inactive: erlotinib -0.086 | [1] 0.054 | [2] 0.104 | [3] 0.009 | [4] -0.063 | [5] -0.044 | [6] 0.085 | [7] 0.02 | [8] 0.024 | IRAK-1-4 Inhibitor I -0.009 | ibrutinib 0 | [9] 0.023 | ralimetinib 0.015 | [10] 0.008 | [11] -0.047 | [12] -0.045 | [13] 0.06 | [14] -0.035 | [15] 0 | [16] -0.01

TIMELESS (UniProt Q9UNS1)
inactive: erlotinib 0.023 | [1] 0.069 | [2] -0.083 | [3] -0.003 | [4] -0.002 | [5] -0.001 | [6] -0.068 | [7] -0.018 | [8] 0 | IRAK-1-4 Inhibitor I -0.032 | ibrutinib 0.011 | [9] -0.079 | ralimetinib 0.006 | [10] -0.053 | [11] -0.01 | [12] 0.011 | [13] -0.007 | [14] -0.01 | [15] 0.029 | [16] -0.027

TIPIN (UniProt Q9BVW5)
inactive: erlotinib -0.021 | [1] -0.012 | [2] 0.009 | [3] 0.03 | [4] 0.018 | [5] -0.024 | [6] 0.051 | [7] 0.036 | [8] 0.024 | IRAK-1-4 Inhibitor I -0.002 | ibrutinib -0.013 | [9] 0.021 | ralimetinib -0.011 | [10] 0.011 | [11] -0.003 | [12] -0.015 | [13] 0.051 | [14] -0.024 | [15] -0.042 | [16] -0.024

THOC3 (UniProt Q96J01)
inactive: erlotinib 0.02 | [1] -0.028 | [2] -0.018 | [3] 0.019 | [4] 0.009 | [5] -0.009 | [6] -0.011 | [7] 0.012 | [8] 0.045 | IRAK-1-4 Inhibitor I -0.009 | ibrutinib -0.012 | [9] 0.021 | ralimetinib 0.021 | [10] 0.007 | [11] -0.056 | [12] -0.033 | [13] -0.002 | [14] -0.008 | [15] 0.005 | [16] -0.003

TIMM17B (UniProt O60830)
inactive: erlotinib 0.035 | [1] 0.02 | [2] 0.102 | [3] 0.026 | [4] 0 | [5] -0.02 | [6] -0.031 | [7] -0.058 | [8] 0.011 | IRAK-1-4 Inhibitor I -0.001 | ibrutinib -0.011 | [9] 0.001 | ralimetinib -0.043 | [10] -0.022 | [11] -0.02 | [12] -0.006 | [13] -0.071 | [14] 0.003 | [15] 0.005 | [16] -0.039

2 consecutive records from above, for reference:
THOC3 (UniProt Q96J01)
inactive: erlotinib 0.02 | [1] -0.028 | [2] -0.018 | [3] 0.019 | [4] 0.009 | [5] -0.009 | [6] -0.011 | [7] 0.012 | [8] 0.045 | IRAK-1-4 Inhibitor I -0.009 | ibrutinib -0.012 | [9] 0.021 | ralimetinib 0.021 | [10] 0.007 | [11] -0.056 | [12] -0.033 | [13] -0.002 | [14] -0.008 | [15] 0.005 | [16] -0.003

TIMM17B (UniProt O60830)
inactive: erlotinib 0.035 | [1] 0.02 | [2] 0.102 | [3] 0.026 | [4] 0 | [5] -0.02 | [6] -0.031 | [7] -0.058 | [8] 0.011 | IRAK-1-4 Inhibitor I -0.001 | ibrutinib -0.011 | [9] 0.001 | ralimetinib -0.043 | [10] -0.022 | [11] -0.02 | [12] -0.006 | [13] -0.071 | [14] 0.003 | [15] 0.005 | [16] -0.039

More entries follow.

TMEM185B (UniProt Q9H7F4)
inactive: erlotinib -0.021 | [1] 0.021 | [2] -0.011 | [3] 0.069 | [4] 0 | [5] -0.041 | [6] 0.053 | [7] 0.042 | [8] 0.002 | IRAK-1-4 Inhibitor I 0.117 | ibrutinib -0.042 | [9] 0.033 | ralimetinib -0.062 | [10] -0.062 | [11] -0.018 | [12] 0.079 | [13] -0.203 | [14] 0.064 | [15] -0.003 | [16] 0.111

TIMM8A (UniProt O60220)
inactive: erlotinib 0.177 | [1] 0.023 | [2] -0.012 | [3] -0.085 | [4] -0.056 | [5] -0.025 | [6] -0.031 | [7] 0.086 | [8] 0.007 | IRAK-1-4 Inhibitor I -0.054 | ibrutinib 0.018 | [9] 0 | ralimetinib -0.023 | [10] 0.033 | [11] -0.065 | [12] 0.005 | [13] 0 | [14] 0 | [15] 0 | [16] 0.049

TLK2 isoform 2 (UniProt Q86UE8)
inactive: erlotinib -0.071 | [1] -0.076 | [2] 0.054 | [3] -0.006 | [4] 0.014 | [5] 0.001 | [6] 0.171 | [7] -0.012 | [8] 0.021 | IRAK-1-4 Inhibitor I -0.058 | ibrutinib -0.021 | [9] 0.104 | ralimetinib 0.035 | [10] -0.018 | [11] 0.007 | [12] -0.009 | [13] 0.051 | [14] 0 | [15] 0.025 | [16] -0.055

TICAM2 isoform 2 (UniProt Q86XR7)
inactive: erlotinib 0.035 | [1] 0.008 | [2] -0.017 | [3] 0.018 | [4] 0.019 | [5] 0.027 | [6] -0.024 | [7] 0.007 | [8] -0.007 | IRAK-1-4 Inhibitor I 0.029 | ibrutinib 0.017 | [9] 0.013 | ralimetinib -0.048 | [10] 0.016 | [11] 0.032 | [12] 0.015 | [13] 0.045 | [14] -0.007 | [15] 0.017 | [16] -0.006

TMEM168 (UniProt Q9H0V1)
inactive: erlotinib 0.013 | [1] 0.049 | [2] 0.021 | [3] -0.052 | [4] -0.023 | [5] -0.027 | [6] 0.25 | [7] 0.054 | [8] 0.046 | IRAK-1-4 Inhibitor I 0.042 | ibrutinib 0.089 | [9] -0.019 | ralimetinib 0.026 | [10] -0.01 | [11] -0.032 | [12] 0.077 | [13] -0.076 | [14] 0.044 | [15] -0.025 | [16] 0.006

TMEM106B (UniProt Q9NUM4)
inactive: erlotinib 0.012 | [1] -0.042 | [2] 0.009 | [3] 0.014 | [4] -0.001 | [5] -0.012 | [6] -0.026 | [7] -0.018 | [8] 0.027 | IRAK-1-4 Inhibitor I 0.03 | ibrutinib 0.065 | [9] -0.08 | ralimetinib 0.033 | [10] 0.053 | [11] -0.023 | [12] 0.056 | [13] -0.061 | [14] 0.027 | [15] -0.037 | [16] -0.017

THRAP3 (UniProt Q9Y2W1)
inactive: erlotinib -0.017 | [1] 0.014 | [2] -0.023 | [3] -0.012 | [4] 0.002 | [5] 0.015 | [6] -0.024 | [7] 0.005 | [8] 0.006 | IRAK-1-4 Inhibitor I 0.005 | ibrutinib -0.057 | [9] -0.021 | ralimetinib -0.042 | [10] -0.007 | [11] -0.007 | [12] -0.043 | [13] -0.079 | [14] 0.012 | [15] 0.017 | [16] -0.01

TIMM44 (UniProt O43615)
inactive: erlotinib -0.019 | [1] -0.02 | [2] -0.008 | [3] -0.019 | [4] 0.041 | [5] -0.012 | [6] 0.03 | [7] -0.019 | [8] 0.004 | IRAK-1-4 Inhibitor I -0.011 | ibrutinib 0.03 | [9] 0.005 | ralimetinib -0.008 | [10] -0.076 | [11] 0.013 | [12] 0.066 | [13] 0.025 | [14] -0.035 | [15] -0.005 | [16] 0.015

TIMM10 (UniProt P62072)
inactive: erlotinib 0.003 | [1] 0.024 | [2] -0.015 | [3] 0.083 | [4] 0.007 | [5] 0.041 | [6] 0.094 | [7] 0.049 | [8] -0.073 | IRAK-1-4 Inhibitor I 0.034 | ibrutinib 0.168 | [9] 0.014 | ralimetinib -0.035 | [10] 0.043 | [11] 0.01 | [12] 0.004 | [13] 0.017 | [14] 0.001 | [15] 0.016 | [16] 0.059

TMEM109 (UniProt Q9BVC6)
inactive: erlotinib 0.004 | [1] 0.027 | [2] 0.021 | [3] -0.01 | [4] 0.017 | [5] -0.009 | [6] 0.005 | [7] 0.032 | [8] 0 | IRAK-1-4 Inhibitor I 0.043 | ibrutinib 0.03 | [9] -0.027 | ralimetinib 0.039 | [10] 0.023 | [11] -0.014 | [12] -0.002 | [13] -0.019 | [14] 0.02 | [15] 0.035 | [16] -0.005

TMC6 (UniProt Q7Z403)
inactive: erlotinib -0.008 | [1] -0.018 | [2] -0.182 | [3] -0.084 | [5] 0.047 | [6] 0.061 | IRAK-1-4 Inhibitor I 0.027 | [9] 0.182 | ralimetinib 0.039 | [10] -0.067 | [11] -0.039 | [12] 0.08 | [14] 0.04 | [15] 0.01 | [16] -0.027
